No constants are given. Whether binding was seen depends on the method and setting. Some results given as binding are weak or reduced against the parent protein; the word gives no strength.
Tests used:
[1] = target: recombinant human soluble Fas receptor (PeproTech) (human) (UniProt P25445); assay: direct binding ELISA on wells coated with recombinant human soluble Fas (5 ug/ml), detected with polyclonal anti-human FasL antibodies; n=3
[2] = target: recombinant human soluble Fas receptor (PeproTech) (human) (UniProt P25445); assay: direct binding ELISA on wells coated with recombinant human Fas (5 ug/mL), detected with polyclonal anti-FasL antibodies

Protein sequences, listed by entry. Tags and fused reporters are not part of them. Lines headed by an entry give the natural chain unless they say otherwise; changes in a name come on top. Chains listed by the source or under a name are the forms on record and can include a tag or linker. Residues count along the entry.
UniProt P25445, residues 17-173: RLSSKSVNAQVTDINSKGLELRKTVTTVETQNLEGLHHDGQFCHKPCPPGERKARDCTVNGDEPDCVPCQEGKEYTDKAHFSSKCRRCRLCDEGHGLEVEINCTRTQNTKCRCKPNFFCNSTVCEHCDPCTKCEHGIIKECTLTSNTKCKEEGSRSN
mut-sFasL (8-site mutated human sFasL, 8 charged amino acids of the stalk region changed to alanine) (P48023, form named): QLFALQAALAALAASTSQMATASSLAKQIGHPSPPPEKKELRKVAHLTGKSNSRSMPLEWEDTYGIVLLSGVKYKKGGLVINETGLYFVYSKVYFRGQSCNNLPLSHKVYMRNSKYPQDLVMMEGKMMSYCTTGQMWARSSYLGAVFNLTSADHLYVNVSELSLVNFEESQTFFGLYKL

- binding [1]: binds
- binding [2]: binds
Substance: mut-sFasL (8-site mutated human sFasL, 8 charged amino acids of the stalk region changed to alanine) (from UniProt P48023 103-281) (ligand)

Source: patent publication US20220002363A1, “COMPOSITIONS AND METHODS FOR TREATING PULMONARY DISEASE” (United States Government As Represented By The Department …, priority 2020, published 2022)
